This data set is described as follows: general procedure: solution-phase peptide synthesis.

With “Boc-N(CH3)-Ala-Leu-N(CH3)Δ^z Phe-Gly-OMe”, where the note is “coupling step”, the step yield is recorded as 88%.

Where the note is “late stage modification step”, Boc-N(CH3)Ala-Leu-N(CH3)Δ^z Phe-Gly-OMe registered a step yield of 80%.

Source of the values: US4735651A (The United States of America as represented by the …, priority 1986, dated 1988).
